No constants are given. Whether binding was seen depends on the method and setting. In cells and extracts the contact can be indirect.
Molecular target: KRAS^Q61L (as used in the immunoprecipitation) (human) (UniProt P01116)
Experiment: co-IP; immunoprecipitation to validate the TurboID hits; cells, bait and conditions not told (Supplementary Fig. S2G and S2H)

Chains of the proteins cited; added tags and fusions are not shown.
UniProt Q14160: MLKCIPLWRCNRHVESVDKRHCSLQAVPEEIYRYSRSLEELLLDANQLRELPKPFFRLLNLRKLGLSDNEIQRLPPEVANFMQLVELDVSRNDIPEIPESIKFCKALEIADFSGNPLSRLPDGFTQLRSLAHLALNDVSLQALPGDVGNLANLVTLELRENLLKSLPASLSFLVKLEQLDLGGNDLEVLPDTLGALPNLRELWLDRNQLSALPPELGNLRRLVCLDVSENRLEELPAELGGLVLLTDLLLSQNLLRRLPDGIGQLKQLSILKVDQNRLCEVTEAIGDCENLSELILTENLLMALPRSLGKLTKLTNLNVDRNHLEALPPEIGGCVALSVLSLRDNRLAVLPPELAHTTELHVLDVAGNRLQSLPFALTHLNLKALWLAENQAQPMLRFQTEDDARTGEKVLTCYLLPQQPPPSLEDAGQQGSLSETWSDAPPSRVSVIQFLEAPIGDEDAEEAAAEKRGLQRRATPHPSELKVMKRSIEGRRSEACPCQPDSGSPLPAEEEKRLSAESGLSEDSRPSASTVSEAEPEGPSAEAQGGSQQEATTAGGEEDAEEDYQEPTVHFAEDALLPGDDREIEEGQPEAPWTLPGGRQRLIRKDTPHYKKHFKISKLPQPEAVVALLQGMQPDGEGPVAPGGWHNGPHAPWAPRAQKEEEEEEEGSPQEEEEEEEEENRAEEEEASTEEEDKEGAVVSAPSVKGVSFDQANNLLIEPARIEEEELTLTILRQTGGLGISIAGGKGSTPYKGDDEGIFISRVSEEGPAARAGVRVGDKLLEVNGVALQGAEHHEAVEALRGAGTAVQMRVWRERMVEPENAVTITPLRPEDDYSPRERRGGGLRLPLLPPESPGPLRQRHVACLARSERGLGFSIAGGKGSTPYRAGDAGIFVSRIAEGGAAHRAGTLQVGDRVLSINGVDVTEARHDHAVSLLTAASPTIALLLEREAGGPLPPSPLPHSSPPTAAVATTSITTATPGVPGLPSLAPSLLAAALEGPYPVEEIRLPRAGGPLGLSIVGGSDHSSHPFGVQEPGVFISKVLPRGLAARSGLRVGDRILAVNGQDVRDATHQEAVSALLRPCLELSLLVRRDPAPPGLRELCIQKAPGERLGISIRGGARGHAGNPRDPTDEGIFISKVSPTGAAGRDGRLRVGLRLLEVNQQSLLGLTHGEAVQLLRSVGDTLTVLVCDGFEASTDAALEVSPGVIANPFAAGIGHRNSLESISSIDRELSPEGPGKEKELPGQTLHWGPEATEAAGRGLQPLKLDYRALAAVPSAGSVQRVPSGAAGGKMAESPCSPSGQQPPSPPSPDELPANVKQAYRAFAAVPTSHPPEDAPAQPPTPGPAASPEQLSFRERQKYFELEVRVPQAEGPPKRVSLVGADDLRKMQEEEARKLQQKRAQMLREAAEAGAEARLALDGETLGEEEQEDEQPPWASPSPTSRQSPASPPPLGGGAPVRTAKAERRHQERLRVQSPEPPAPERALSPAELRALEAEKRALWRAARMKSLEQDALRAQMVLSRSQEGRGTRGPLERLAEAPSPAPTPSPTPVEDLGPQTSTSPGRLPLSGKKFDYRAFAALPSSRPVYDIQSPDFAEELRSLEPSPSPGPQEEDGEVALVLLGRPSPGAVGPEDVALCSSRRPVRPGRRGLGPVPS

binding: no binding
Substance: SCRIB (from UniProt Q14160 1-1655)

Source: PMC12541299
